Measurements as given in publication PMC9607104 (Molecules, 2022).
HELM strings list residues between dots; [ac] is acetyl, [am] amide, other brackets name non-standard units.

Experiment: general procedure: Fmoc solid-phase peptide synthesis; Rink Amide-ChemMatrix resin (Biotage), loading 0.52 mmol g^-1
Conditions: whole synthesis, 210 nm

PEPTIDE1{[ac].[dK].[dL].[dT].W.Q.E.L.Y.Q.L.K.Y.K.G.I.[am]}$$$$V2.0
final HPLC purity: >95%
